The list is a part of this screen's results and no random one: it gathers tests that were run many times, whatever their T/C, doses with no T/C, and many T/C values between a quarter and a half above the control. Other doses and runs of a compound stand elsewhere. T/C is the treated group as % of the vehicle group. Some doses have a count of surviving animals in place of a T/C: the source holds a T/C of zero for them, seemingly a mark for toxic or unscored doses. Some doses without a T/C left all or most animals alive at the check, yet need not have been tolerated: the source hardly ever lists a survival T/C far under the control, and the zero likely stands for such cases as well. Survivors were counted at the toxicity check, usually on the fifth day, unless a day is given; later deaths do not show. Schedules are NCI's codes, taken here to give the interval after Q, in days (D) or hours (H), and the number of doses after X. Some entries hold several experiments; their values stand side by side, smallest first. Where survival is the endpoint, this PubChem deposit counts one and a half times the control or more as active, and values a quarter to a half above the control carry no call in these data; other NCI protocols may use other cut-offs. Some T/C values carry the count of animals alive at the toxicity check (mostly the fifth day); without a count, all were alive then.
Tested on: L1210 leukemia ip in BDF1 mice, survival T/C
Assay: NCI In Vivo Anticancer Drug Screen. Data for tumor model L1210 Leukemia (intraperitoneal) in B6D2F1 (BDF1) mice
Conditions: T/C endpoint: mean survival time, higher T/C = longer survival
[1] = dose: 40.0 mg/kg/injection, schedule: Q01DX004 (ip), vehicle: saline with Tween-80
[2] = dose: 60.0 mg/kg/injection, schedule: Q01DX004 (ip), vehicle: saline with Tween-80

Q: For CC(C)N(C(=O)CSc1c(Cl)c(Cl)c(Cl)c(Cl)c1Cl)C(C)C, which survivor count (dose: 400.0 mg/kg/injection, schedule: Q04DX002 (ip), vehicle: other) is on record?
A: Its survivor count is 1 of 3 and 3 of 6.

Q: What about the survivor count (dose: 400.0 mg/kg/injection, schedule: Q04DX003 (ip), vehicle: other) of the same compound?
A: Its survivor count is 1 of 6.

Q: For COc1ccc(C(=O)C(C)(CN(C)C)c2ccccc2)cc1 (configuration not stated), which survivor count (dose: 200.0 mg/kg/injection, schedule: Q04DX003 (ip), vehicle: saline) is on record?
A: The survivor count was 2 of 6.

Q: What about the survivor count (dose: 400.0 mg/kg/injection, schedule: Q04DX003 (ip), vehicle: saline) of the same compound?
A: Its survivor count is 0 of 6.

Q: CC(c1ccc(Br)cc1)N(C)C (configuration not stated) was tested. Which survivor count (dose: 100.0 mg/kg/injection, schedule: Q01DX001 (ip), vehicle: saline) did it give?
A: Its survivor count is 3 of 6.

Q: And the survivor count (dose: 200.0 mg/kg/injection, schedule: Q01DX001 (ip), vehicle: saline)?
A: The survivor count was 1 of 6.

Q: And the survivor count (dose: 400.0 mg/kg/injection, schedule: Q01DX001 (ip), vehicle: saline)?
A: The survivor count was 1 of 6.

Q: For C1CCC2C[N-]CCC2C1.C1CCC2C[N-]CCC2C1.C1CCC2C[N-]CCC2C1.C1CCC2C[N-]CCC2C1.[Cl][Rh][Cl] (configuration not stated), which survivor count (dose: 0.5 mg/kg/injection, schedule: Q01DX009 (ip), vehicle: citric acid) is on record?
A: The survivor count was 4 of 6.

Q: And the survivor count (dose: 1.0 mg/kg/injection, schedule: Q01DX009 (ip), vehicle: citric acid)?
A: The survivor count was 3 of 6.

Q: And the survivor count (dose: 4.0 mg/kg/injection, schedule: Q01DX009 (ip), vehicle: citric acid)?
A: Its survivor count is 4 of 6.

Q: What about the survivor count (dose: 6.25 mg/kg/injection, schedule: Q01DX009 (ip), vehicle: saline with Tween-80) of the same compound?
A: Its survivor count is 6 of 6.

Q: And the survivor count (dose: 8.0 mg/kg/injection, schedule: Q01DX009 (ip), vehicle: Klucel (hydroxypropylcellulose) (HPC))?
A: The survivor count was 5 of 6.

Q: And the survivor count (dose: 8.0 mg/kg/injection, schedule: Q01DX009 (ip), vehicle: citric acid)?
A: Its survivor count is 0 of 6.

Q: And the survivor count (dose: 12.5 mg/kg/injection, schedule: Q01DX009 (ip), vehicle: saline with Tween-80)?
A: The survivor count was 0 of 6.

Q: What about the survivor count (dose: 12.5 mg/kg/injection, schedule: Q04DX003 (ip), vehicle: saline with Tween-80) of the same compound?
A: Its survivor count is 3 of 6 and 4 of 6.

Q: What about the survivor count (dose: 25.0 mg/kg/injection, schedule: Q04DX003 (ip), vehicle: saline with Tween-80) of the same compound?
A: Its survivor count is 3 of 6.

Q: What about the survivor count (dose: 50.0 mg/kg/injection, schedule: Q04DX003 (ip), vehicle: saline with Tween-80) of the same compound?
A: The survivor count was 1 of 6.

Q: And the survivor count (dose: 100.0 mg/kg/injection, schedule: Q04DX003 (ip), vehicle: saline with Tween-80)?
A: Its survivor count is 0 of 6.

Q: And the survivor count (dose: 200.0 mg/kg/injection, schedule: Q04DX003 (ip), vehicle: saline with Tween-80)?
A: The survivor count was 0 of 6.

Q: What about the survivor count (dose: 400.0 mg/kg/injection, schedule: Q04DX003 (ip), vehicle: saline with Tween-80) of the same compound?
A: The survivor count was 0 of 6.

Q: CCCCC(=O)OCC(=O)[C@]1(O)Cc2c(O)c3c(c(O)c2[C@@H](OC2CC(NC(=O)C(F)(F)F)C(O)C(C)O2)C1)C(=O)c1c(OC)cccc1C3=O (some centres not stated) was tested. Which T/C (dose: 15.0 mg/kg/injection, schedule: Q01DX004 (ip), vehicle: saline with Tween-80, evaluated on day 30) did it give?
A: The T/C was 142 % of control.

Q: And the T/C (dose: 15.0 mg/kg/injection, schedule: Q01DX004 (ip), vehicle: saline with Tween-80, evaluated on day 60)?
A: The T/C was 141 % of control.

Q: And the T/C (dose: 20.0 mg/kg/injection, schedule: Q01DX004 (ip), vehicle: saline with Tween-80, evaluated on day 30)?
A: Its T/C is 140 and 147 % of control.

Q: And the T/C (dose: 20.0 mg/kg/injection, schedule: Q01DX004 (ip), vehicle: saline with Tween-80, evaluated on day 60)?
A: The T/C was 141 % of control.

Q: And the T/C (dose: 30.0 mg/kg/injection, schedule: Q01DX004 (ip), vehicle: saline with Tween-80, evaluated on day 30)?
A: The T/C was 141 % of control.

Q: And the T/C (dose: 30.0 mg/kg/injection, schedule: Q01DX004 (ip), vehicle: saline with Tween-80, evaluated on day 60)?
A: The T/C was 139 % of control.

Q: And the T/C [1]?
A: Its T/C is 110 [5 of 6 alive], 134, 140 % of control.

Q: And the survivor count [1]?
A: The survivor count was 8 of 8.

Q: And the survivor count (dose: 50.0 mg/kg/injection, schedule: Q01DX004 (ip), vehicle: saline with Tween-80)?
A: The survivor count was 5 of 6.

Q: What about the T/C [2] of the same compound?
A: Its T/C is 102 and 155 % of control [6 of 7 alive].

Q: And the survivor count [2]?
A: Its survivor count is 3 of 6 and 8 of 8.

Q: What about the survivor count (dose: 80.0 mg/kg/injection, schedule: Q01DX004 (ip), vehicle: saline with Tween-80) of the same compound?
A: The survivor count was 7 of 8 and 8 of 8.
